# Data taken from the supplement of paper PMC10849652.
# Sequences of proteins named here, by UniProt entry; tags and fusion partners are left off. A change or cut given only in a name is not applied to a line headed by its entry.
# UniProt Q9HB90, whole entry, looked up: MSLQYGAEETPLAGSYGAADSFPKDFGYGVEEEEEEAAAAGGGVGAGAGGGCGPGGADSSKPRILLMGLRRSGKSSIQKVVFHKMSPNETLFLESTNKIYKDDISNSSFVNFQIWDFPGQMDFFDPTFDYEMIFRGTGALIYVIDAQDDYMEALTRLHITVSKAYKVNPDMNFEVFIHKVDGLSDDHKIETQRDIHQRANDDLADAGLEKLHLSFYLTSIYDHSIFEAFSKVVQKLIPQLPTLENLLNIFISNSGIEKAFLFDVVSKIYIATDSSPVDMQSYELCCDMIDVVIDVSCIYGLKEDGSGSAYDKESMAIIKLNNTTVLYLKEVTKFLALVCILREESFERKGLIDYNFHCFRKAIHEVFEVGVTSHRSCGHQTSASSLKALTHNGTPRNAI
# UniProt P62070: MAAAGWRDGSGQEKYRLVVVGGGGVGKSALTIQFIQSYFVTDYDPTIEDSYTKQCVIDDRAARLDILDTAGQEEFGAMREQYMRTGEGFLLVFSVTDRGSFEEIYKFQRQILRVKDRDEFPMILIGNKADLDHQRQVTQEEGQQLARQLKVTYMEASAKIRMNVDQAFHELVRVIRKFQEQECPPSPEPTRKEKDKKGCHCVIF
# UniProt Q15418, whole entry, looked up: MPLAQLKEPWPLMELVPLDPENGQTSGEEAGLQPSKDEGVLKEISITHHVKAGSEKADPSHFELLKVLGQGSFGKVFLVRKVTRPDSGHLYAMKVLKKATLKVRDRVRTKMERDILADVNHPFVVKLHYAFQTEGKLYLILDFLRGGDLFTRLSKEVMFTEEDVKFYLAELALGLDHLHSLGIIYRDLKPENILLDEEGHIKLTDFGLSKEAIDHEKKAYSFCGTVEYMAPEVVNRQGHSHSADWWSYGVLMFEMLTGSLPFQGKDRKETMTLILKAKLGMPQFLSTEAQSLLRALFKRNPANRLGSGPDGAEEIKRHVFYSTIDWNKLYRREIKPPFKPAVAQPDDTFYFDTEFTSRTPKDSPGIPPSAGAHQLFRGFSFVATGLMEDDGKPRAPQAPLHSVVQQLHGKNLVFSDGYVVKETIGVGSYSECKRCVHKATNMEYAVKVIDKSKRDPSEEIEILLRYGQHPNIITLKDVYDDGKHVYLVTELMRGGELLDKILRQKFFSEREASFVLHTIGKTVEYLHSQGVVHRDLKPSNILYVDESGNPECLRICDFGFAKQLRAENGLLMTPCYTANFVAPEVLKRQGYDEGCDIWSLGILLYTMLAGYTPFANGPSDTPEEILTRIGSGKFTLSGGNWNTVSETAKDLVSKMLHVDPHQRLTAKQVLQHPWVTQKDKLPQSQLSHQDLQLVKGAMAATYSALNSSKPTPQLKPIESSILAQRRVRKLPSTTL
# UniProt O75818: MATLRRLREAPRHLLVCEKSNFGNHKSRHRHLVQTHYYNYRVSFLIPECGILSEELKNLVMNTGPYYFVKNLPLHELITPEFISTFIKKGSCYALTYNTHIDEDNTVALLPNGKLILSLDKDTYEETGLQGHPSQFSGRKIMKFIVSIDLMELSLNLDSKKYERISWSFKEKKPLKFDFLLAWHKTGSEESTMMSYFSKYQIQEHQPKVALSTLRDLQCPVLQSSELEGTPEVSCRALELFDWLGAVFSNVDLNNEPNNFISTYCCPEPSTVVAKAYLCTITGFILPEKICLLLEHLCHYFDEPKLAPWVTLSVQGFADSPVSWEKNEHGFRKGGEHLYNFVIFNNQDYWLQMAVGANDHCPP
# UniProt P78346: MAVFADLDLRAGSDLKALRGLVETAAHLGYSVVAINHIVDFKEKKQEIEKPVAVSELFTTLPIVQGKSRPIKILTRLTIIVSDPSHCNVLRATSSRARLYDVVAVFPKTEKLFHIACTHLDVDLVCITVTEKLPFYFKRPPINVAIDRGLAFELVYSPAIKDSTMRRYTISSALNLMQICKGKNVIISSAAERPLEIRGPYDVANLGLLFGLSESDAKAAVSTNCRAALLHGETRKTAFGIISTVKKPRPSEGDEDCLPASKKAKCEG
# UniProt P35244: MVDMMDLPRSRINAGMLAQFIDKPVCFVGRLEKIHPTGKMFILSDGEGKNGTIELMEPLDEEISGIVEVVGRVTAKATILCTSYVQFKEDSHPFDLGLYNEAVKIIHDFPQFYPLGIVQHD
# UniProt Q5VT52: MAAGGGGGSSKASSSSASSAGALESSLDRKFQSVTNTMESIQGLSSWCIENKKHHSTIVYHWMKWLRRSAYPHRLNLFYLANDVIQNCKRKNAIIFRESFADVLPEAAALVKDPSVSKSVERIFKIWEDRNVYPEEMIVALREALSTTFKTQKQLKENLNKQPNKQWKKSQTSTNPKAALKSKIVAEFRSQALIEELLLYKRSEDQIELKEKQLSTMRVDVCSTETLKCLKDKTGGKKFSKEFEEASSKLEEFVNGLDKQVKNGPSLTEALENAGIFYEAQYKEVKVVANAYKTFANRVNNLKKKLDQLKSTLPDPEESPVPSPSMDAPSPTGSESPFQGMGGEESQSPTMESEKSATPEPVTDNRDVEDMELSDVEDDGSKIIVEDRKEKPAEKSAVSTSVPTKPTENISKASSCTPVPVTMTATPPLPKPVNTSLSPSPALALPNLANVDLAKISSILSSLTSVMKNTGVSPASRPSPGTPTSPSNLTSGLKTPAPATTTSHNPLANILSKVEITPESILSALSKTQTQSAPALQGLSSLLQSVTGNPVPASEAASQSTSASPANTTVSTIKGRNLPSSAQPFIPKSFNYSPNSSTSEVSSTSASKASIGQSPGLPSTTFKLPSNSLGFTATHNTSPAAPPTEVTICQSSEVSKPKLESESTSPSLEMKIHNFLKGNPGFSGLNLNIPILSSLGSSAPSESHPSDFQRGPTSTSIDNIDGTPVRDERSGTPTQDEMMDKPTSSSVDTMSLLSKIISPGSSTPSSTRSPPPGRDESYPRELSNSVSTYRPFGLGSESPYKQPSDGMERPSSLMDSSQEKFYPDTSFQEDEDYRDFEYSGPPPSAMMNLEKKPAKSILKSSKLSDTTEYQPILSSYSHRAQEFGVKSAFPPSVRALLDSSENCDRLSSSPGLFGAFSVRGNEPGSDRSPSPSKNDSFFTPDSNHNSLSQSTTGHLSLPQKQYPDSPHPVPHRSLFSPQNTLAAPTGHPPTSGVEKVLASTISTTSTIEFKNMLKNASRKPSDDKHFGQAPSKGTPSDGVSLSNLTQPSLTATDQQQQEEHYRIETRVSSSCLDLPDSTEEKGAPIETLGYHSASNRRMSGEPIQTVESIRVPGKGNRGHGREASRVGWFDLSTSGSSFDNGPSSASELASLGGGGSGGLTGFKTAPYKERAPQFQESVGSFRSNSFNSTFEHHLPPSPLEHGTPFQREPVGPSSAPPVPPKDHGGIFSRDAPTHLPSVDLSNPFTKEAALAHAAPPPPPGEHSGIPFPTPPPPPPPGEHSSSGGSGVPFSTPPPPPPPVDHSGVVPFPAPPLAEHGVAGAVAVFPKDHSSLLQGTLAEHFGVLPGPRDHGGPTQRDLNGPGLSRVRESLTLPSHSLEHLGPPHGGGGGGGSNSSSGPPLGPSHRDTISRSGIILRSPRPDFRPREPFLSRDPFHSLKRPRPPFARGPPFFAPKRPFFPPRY
# UniProt Q5VZM2, whole entry, looked up: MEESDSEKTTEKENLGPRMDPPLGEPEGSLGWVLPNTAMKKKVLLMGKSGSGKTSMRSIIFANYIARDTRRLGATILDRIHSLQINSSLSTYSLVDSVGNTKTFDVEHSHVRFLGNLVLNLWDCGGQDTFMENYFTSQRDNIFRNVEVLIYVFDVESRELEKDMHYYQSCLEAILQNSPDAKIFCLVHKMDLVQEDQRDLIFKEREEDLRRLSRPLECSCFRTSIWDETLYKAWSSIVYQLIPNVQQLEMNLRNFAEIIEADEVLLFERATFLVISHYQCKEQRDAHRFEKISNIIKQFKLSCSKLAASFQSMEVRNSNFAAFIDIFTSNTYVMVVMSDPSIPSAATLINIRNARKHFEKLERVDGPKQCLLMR
# UniProt Q9BWH6: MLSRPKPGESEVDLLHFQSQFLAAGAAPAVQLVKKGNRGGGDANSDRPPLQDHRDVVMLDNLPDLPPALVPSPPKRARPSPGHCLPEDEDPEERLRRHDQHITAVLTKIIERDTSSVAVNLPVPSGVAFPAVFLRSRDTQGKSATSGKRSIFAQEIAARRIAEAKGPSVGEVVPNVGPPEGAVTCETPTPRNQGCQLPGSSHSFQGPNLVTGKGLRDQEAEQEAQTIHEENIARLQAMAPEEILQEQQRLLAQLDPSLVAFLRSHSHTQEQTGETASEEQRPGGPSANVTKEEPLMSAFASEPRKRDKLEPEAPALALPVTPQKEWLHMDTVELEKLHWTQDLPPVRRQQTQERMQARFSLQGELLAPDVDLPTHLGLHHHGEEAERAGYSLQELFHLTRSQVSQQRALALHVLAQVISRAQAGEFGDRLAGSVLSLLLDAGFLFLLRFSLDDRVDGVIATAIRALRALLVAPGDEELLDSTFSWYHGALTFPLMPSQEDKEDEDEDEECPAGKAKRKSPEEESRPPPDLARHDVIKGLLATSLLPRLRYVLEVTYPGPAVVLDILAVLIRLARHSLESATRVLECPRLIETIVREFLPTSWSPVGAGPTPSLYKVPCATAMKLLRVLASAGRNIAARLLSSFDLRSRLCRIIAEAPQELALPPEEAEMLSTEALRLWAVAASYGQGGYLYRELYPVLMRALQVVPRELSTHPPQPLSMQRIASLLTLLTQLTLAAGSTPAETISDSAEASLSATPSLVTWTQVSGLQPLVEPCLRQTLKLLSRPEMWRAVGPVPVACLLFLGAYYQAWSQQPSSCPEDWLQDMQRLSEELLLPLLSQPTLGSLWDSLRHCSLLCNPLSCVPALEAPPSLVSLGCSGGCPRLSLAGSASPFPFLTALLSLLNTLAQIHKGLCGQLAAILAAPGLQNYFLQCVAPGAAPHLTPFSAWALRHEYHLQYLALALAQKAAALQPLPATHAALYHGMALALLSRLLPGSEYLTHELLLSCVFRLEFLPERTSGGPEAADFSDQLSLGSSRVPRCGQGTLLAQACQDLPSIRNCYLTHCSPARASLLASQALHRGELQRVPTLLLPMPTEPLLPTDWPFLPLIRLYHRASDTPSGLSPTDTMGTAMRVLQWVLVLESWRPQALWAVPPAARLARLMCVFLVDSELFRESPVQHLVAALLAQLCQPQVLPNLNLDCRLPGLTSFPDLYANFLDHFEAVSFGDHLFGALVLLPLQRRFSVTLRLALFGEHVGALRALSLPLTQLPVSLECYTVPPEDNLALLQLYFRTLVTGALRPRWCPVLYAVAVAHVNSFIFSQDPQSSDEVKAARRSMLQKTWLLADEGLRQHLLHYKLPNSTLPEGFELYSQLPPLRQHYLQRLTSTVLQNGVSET
# UniProt O95059: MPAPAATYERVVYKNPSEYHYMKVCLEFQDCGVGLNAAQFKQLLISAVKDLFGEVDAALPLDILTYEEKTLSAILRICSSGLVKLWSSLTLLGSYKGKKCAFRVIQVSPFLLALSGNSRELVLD
# UniProt P31350, whole entry, looked up: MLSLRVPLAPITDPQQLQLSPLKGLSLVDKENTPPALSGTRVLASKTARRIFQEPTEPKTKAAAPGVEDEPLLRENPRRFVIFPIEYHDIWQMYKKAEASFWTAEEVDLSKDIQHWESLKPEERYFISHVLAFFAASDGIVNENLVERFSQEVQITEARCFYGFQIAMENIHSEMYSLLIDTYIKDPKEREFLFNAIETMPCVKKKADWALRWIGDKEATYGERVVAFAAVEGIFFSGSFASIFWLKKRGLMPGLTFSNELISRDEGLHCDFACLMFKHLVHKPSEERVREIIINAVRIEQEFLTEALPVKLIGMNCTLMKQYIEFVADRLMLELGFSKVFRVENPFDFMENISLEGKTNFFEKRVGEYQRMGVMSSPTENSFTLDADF
# UniProt Q15287: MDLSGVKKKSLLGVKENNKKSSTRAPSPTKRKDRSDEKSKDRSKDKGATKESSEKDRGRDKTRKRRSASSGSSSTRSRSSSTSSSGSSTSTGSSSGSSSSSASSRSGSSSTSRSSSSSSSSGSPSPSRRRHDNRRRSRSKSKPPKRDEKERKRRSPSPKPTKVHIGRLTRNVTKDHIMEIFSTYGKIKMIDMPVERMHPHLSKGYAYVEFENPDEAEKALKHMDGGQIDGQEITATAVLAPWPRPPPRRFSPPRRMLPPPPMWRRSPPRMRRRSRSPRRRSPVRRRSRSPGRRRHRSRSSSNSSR
# The list shows a part of the results. Residues, ends and D or L forms follow the SMILES beside them. *: point of attachment. Cbz = O=C(OCc1ccccc1)*
# Assays:
# Assay in all cases: log2 fold change, soluble protein after heating vs DMSO (PISA); higher = thermal stabilisation; K562 cells, 10 uM, 30 min; active = over 0.2 and 3.5 SD of the protein, either way, in both replicates (recomputed)
# [1] = compound: C1COCCN1CCN2C3=CC=CC=C3N=C2NC(=O)C4=CC(=CC=C4)[N+](=O)[O-] [IRAK-1-4 Inhibitor I]
# Summary of the method: (§1)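 K562 cells at 2×10^6 cells/mL were given 10 μM compound for 30 min. Aliquots then went through 3 min of heating across 48°C-58°C, were pooled, and were extracted in PBS with 0.5% NP-40 at 4°C, and the supernatant after 21,000xg for 90 min was quantified by TMTpro 16plex LC-MS/MS with channel sums equalised. Thermal stability relative to control samples, from duplicates, is given as log2 fold change.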
# [2] = compound: C=CC(=O)N1CCC[C@@H](n2nc(-c3ccc(Oc4ccccc4)cc3)c3c(N)ncnc32)C1 [ibrutinib]
# Summary of the method: as §1
# [3] = compound: CC(=O)c1cnc2ccc(-c3cc(Cl)c(O)c(Cl)c3)nc2c1N[C@H]1CC[C@H](CN(C)C)CC1
# Summary of the method: as §1
# [4] = compound: CC(C)(C)Cn1c(N)nc2ccc(-c3[nH]c(C(C)(C)C)nc3-c3ccc(F)cc3)nc21 [ralimetinib]
# Summary of the method: as §1
# [5] = compound: CC(C)(O)CC(=O)NCCn1ccc2ncnc(Nc3ccc(Oc4cccc(C(F)(F)F)c4)c(Cl)c3)c21
# Summary of the method: as §1
# [6] = compound: CC(C)C1=C2N=C(C=C(N2N=C1)NCC3=CC=CC=C3)NCCCCCCN
# Summary of the method: as §1
# [7] = compound: CC(C)C[C@@H](C=O)NC(=O)[C@H](CC(C)C)NC(=O)[C@H](CC(C)C)NC(=O)OCc1ccccc1
# Summary of the method: as §1
# [8] = compound: CC(C)N(C[C@H]1O[C@@H](n2cnc3c(N)ncnc32)[C@H](O)[C@@H]1O)[C@H]1C[C@@H](CCc2nc3cc(C(C)(C)C)ccc3[nH]2)C1 [pinometostat]
# Summary of the method: as §1
# [9] = compound: CC1=C(C(CC(=O)N1)C2=CC=C(C=C2)C(F)(F)F)C(=O)NC3=C(C=C4C(=C3)C=NN4)F
# Summary of the method: as §1
# [10] = compound: CC1=C(C2=C(C=C1)C(=O)C3=CC=CC=C3N2CCCN)C
# Summary of the method: as §1
Target,log2 fold change [1],log2 fold change [2],log2 fold change [3],log2 fold change [4],log2 fold change [5],log2 fold change [6],log2 fold change [7],log2 fold change [8],log2 fold change [9],log2 fold change [10]
RPS26 (UniProt P62854),inactive: -0.149,inactive: 0.112,inactive: 0.127,inactive: 0.26,inactive: 0,inactive: -0.02,inactive: 0.085,inactive: 0.336,inactive: 0.082,inactive: -0.875
RRAGC (UniProt Q9HB90),inactive: 0.033,inactive: -0.009,inactive: -0.057,inactive: -0.056,inactive: 0.004,inactive: -0.18,inactive: 0.068,inactive: -0.008,–,inactive: 0.034
RRAS2 isoform 4 (UniProt P62070),inactive: 0.011,inactive: 0.097,inactive: -0.009,inactive: -0.023,inactive: 0.242,inactive: 0.077,inactive: 0.005,inactive: -0.034,–,inactive: 0.077
RPS12 (UniProt P25398),inactive: -0.063,inactive: 0.036,inactive: 0.051,inactive: 0.043,inactive: 0.003,inactive: 0.036,inactive: -0.024,inactive: 0.024,–,active: -0.314
RPS23 (UniProt P62266),inactive: -0.198,inactive: 0.098,inactive: 0.235,inactive: 0.15,inactive: 0,inactive: 0.01,inactive: 0.089,inactive: 0.369,inactive: 0.049,inactive: -0.684
RPS20 isoform 2 (UniProt P60866),inactive: -0.103,inactive: 0.012,inactive: 0.02,inactive: 0.041,inactive: 0.046,inactive: -0.03,inactive: 0.012,inactive: 0.123,–,active: -0.368
RPL36 (UniProt Q9Y3U8),inactive: -0.338,inactive: 0.033,inactive: 0.28,inactive: 0.269,inactive: 0,inactive: 0.04,inactive: 0.149,inactive: 0.418,inactive: 0.156,inactive: -0.916
RPS6KA1 isoform 2 (UniProt Q15418),inactive: -0.013,inactive: -0.062,inactive: -0.167,active: -0.429,inactive: -0.092,inactive: -0.164,inactive: 0.059,inactive: -0.006,–,inactive: 0.018
RPLP0 (UniProt P05388),inactive: -0.212,inactive: 0.089,inactive: 0.204,inactive: 0.2,inactive: 0.053,inactive: 0.022,inactive: 0.156,inactive: 0.523,inactive: 0.082,inactive: -0.886
RPP40 (UniProt O75818),inactive: -0.001,inactive: 0.02,inactive: -0.037,inactive: -0.053,inactive: 0.009,inactive: 0.019,inactive: -0.024,inactive: 0.025,inactive: 0.013,inactive: -0.107
RPL29 (UniProt P47914),inactive: -0.208,inactive: 0.118,inactive: 0.223,inactive: 0.386,inactive: 0.393,inactive: 0.106,inactive: 0.216,inactive: 0.398,inactive: 0.061,inactive: -0.763
RPS9 (UniProt P46781),inactive: -0.1,inactive: -0.025,inactive: 0.108,inactive: 0.125,inactive: 0.047,inactive: -0.025,inactive: 0,inactive: 0.206,–,active: -0.585
RPL38 (UniProt P63173),inactive: 0.014,inactive: 0.01,inactive: 0,inactive: 0.043,inactive: 0.113,inactive: 0,inactive: 0.124,inactive: 0.07,–,inactive: -0.026
RPP30 isoform 2 (UniProt P78346),inactive: -0.022,inactive: 0.052,inactive: -0.033,inactive: 0.006,inactive: 0.039,inactive: 0.035,inactive: 0.015,inactive: 0.047,inactive: 0.027,inactive: -0.107
RPS27A (UniProt P62979),inactive: -0.055,inactive: 0.141,inactive: 0.054,inactive: 0.082,inactive: 0.216,inactive: 0.051,inactive: 0.114,inactive: 0.078,–,active: -0.557
RPA3 (UniProt P35244),inactive: 0.02,inactive: 0.029,inactive: 0.016,inactive: 0.038,inactive: -0.097,inactive: -0.025,inactive: -0.137,inactive: 0.016,–,inactive: 0.129

Target,log2 fold change [1],log2 fold change [2],log2 fold change [3],log2 fold change [4],log2 fold change [5],log2 fold change [6],log2 fold change [7],log2 fold change [8],log2 fold change [9],log2 fold change [10]
RPL3 (UniProt P39023),inactive: -0.314,inactive: 0.061,inactive: 0.265,inactive: 0.25,inactive: 0.067,inactive: -0.05,inactive: 0.173,inactive: 0.548,inactive: 0.095,inactive: -0.969
RPS24 isoform 4 (UniProt P62847),inactive: -0.1,inactive: 0.053,inactive: 0.095,inactive: 0.128,inactive: 0.057,inactive: -0.011,inactive: 0.094,inactive: 0.255,inactive: 0.074,inactive: -0.538
RPS5 (UniProt P46782),inactive: -0.137,inactive: 0.045,inactive: 0.083,inactive: 0.103,inactive: 0,inactive: -0.015,inactive: -0.019,inactive: 0.091,–,active: -0.551
RPS25 (UniProt P62851),inactive: -0.08,inactive: 0.01,inactive: 0.069,inactive: 0.073,inactive: 0.033,inactive: -0.028,inactive: 0.054,inactive: 0.184,–,active: -0.533
RPL31 (UniProt P62899),inactive: -0.168,inactive: -0.021,inactive: 0.138,inactive: 0.1,inactive: 0.052,inactive: -0.013,inactive: 0.14,inactive: 0.273,–,active: -0.625
RPRD2 (UniProt Q5VT52),inactive: -0.096,inactive: -0.103,inactive: -0.017,inactive: -0.048,inactive: -0.229,inactive: -0.262,inactive: 0.035,inactive: 0.138,–,inactive: -0.13
RRAGB (UniProt Q5VZM2),inactive: 0.034,inactive: 0.029,inactive: 0.08,inactive: 0.002,inactive: -0.012,inactive: -0.162,inactive: 0.011,inactive: 0.039,–,inactive: 0.026
RPAP1 (UniProt Q9BWH6),inactive: -0.002,inactive: 0.023,inactive: -0.067,inactive: 0.022,inactive: -0.054,inactive: -0.059,inactive: 0.019,inactive: 0.032,inactive: -0.022,inactive: -0.004
RPS29 (UniProt P62273),inactive: -0.116,inactive: 0.078,inactive: 0.191,inactive: 0.546,inactive: -0.008,inactive: 0.061,inactive: 0.578,inactive: 0.188,inactive: 0.367,inactive: -0.625
RPS16 (UniProt P62249),inactive: -0.137,inactive: 0.036,inactive: 0.054,inactive: 0.032,inactive: 0.011,inactive: -0.02,inactive: 0.035,inactive: 0.102,–,active: -0.6
RPP14 (UniProt O95059),inactive: -0.035,inactive: 0.073,inactive: -0.021,inactive: 0.009,inactive: 0.051,inactive: -0.021,inactive: 0,inactive: 0.021,–,inactive: -0.04
RPL19 (UniProt P84098),inactive: -0.148,inactive: 0.06,inactive: 0.144,inactive: 0.195,inactive: 0.158,inactive: -0.025,inactive: 0.157,inactive: 0.344,inactive: 0.068,inactive: -0.704
RPS4X (UniProt P62701),inactive: -0.129,inactive: 0.025,inactive: 0.126,inactive: 0.106,inactive: 0.003,inactive: -0.025,inactive: 0.074,inactive: 0.273,–,active: -0.679
RRM2 isoform 2 (UniProt P31350),inactive: 0.031,inactive: 0.011,inactive: 0.014,inactive: 0.013,inactive: -0.025,inactive: 0.02,inactive: -0.007,inactive: -0.04,inactive: 0.001,inactive: -0.048
RNPS1 (UniProt Q15287),inactive: -0.159,inactive: -0.031,inactive: -0.317,inactive: 0.128,inactive: -0.039,inactive: -0.126,inactive: 0.066,inactive: 0.08,–,active: -0.746

# For convenience, some entries already given:
Target,log2 fold change [1],log2 fold change [2],log2 fold change [3],log2 fold change [4],log2 fold change [5],log2 fold change [6],log2 fold change [7],log2 fold change [8],log2 fold change [9],log2 fold change [10]
RPL31 (UniProt P62899),inactive: -0.168,inactive: -0.021,inactive: 0.138,inactive: 0.1,inactive: 0.052,inactive: -0.013,inactive: 0.14,inactive: 0.273,–,active: -0.625
RPRD2 (UniProt Q5VT52),inactive: -0.096,inactive: -0.103,inactive: -0.017,inactive: -0.048,inactive: -0.229,inactive: -0.262,inactive: 0.035,inactive: 0.138,–,inactive: -0.13
RRAGB (UniProt Q5VZM2),inactive: 0.034,inactive: 0.029,inactive: 0.08,inactive: 0.002,inactive: -0.012,inactive: -0.162,inactive: 0.011,inactive: 0.039,–,inactive: 0.026
RPAP1 (UniProt Q9BWH6),inactive: -0.002,inactive: 0.023,inactive: -0.067,inactive: 0.022,inactive: -0.054,inactive: -0.059,inactive: 0.019,inactive: 0.032,inactive: -0.022,inactive: -0.004
RPS29 (UniProt P62273),inactive: -0.116,inactive: 0.078,inactive: 0.191,inactive: 0.546,inactive: -0.008,inactive: 0.061,inactive: 0.578,inactive: 0.188,inactive: 0.367,inactive: -0.625
RPS16 (UniProt P62249),inactive: -0.137,inactive: 0.036,inactive: 0.054,inactive: 0.032,inactive: 0.011,inactive: -0.02,inactive: 0.035,inactive: 0.102,–,active: -0.6
